In all, about 33,000 sequences were measured (“E-score (-0.5 to 0.5)”: median about -0.0059, highest 2% from about 0.26 on). This is one part of the list.
Target: T1, Cin5 (UniProt P40917)
T1 sequence: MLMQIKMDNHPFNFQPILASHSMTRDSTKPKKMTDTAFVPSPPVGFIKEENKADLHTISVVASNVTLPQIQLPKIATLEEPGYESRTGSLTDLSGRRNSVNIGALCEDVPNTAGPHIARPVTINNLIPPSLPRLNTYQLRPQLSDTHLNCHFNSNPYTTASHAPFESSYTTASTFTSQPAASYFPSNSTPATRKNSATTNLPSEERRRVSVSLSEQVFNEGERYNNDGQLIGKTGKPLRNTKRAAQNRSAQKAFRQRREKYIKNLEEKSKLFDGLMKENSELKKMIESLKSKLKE
Test: PBM E-score (8-mer binding enrichment) (E-score (-0.5 to 0.5)); higher = stronger / more preferred TF binding
Conditions: protein concentration: 100 nM; construct: GST-full length
Method in brief: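 GST-tagged yeast TFs (full-length or DNA-binding domain) were made by PURExpress in vitro transcription/translation and applied at about 100-200 nM to universal all-10-mer Agilent arrays. The arrays were made double-stranded by primer extension, on fresh or once-stripped slides. Bound protein was detected with fluorescent anti-GST, and scans were normalised with masliner. Each ungapped eight-base word, pooled with its reverse complement, received an E-score (modified Wilcoxon-Mann-Whitney statistic) from the Universal PBM Analysis Suite.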

Sequence | PBM E-score
GTACTTCA | 0.279
AACCACCG | -0.0288
ACGCGGAA | 0.159
CTATCGAA | 0.0827
GACATTTA | -0.0604
CATCATCA | 0.0389
AGCACTCA | 0.0608
CGTACACG | 0.0779
AAGGGCGG | 0.0085
ACGACACC | 0.0663
CATGCAAA | 0.0998
CATCTCAG | 0.268
CAGCTGCG | -0.128
CATAACAC | 0.118
CACCATAG | -0.153
CCAACCTA | -0.0695
GGCCAAAA | -0.0565
AGATGCGG | 0.082
ACACTACT | 0.14
CGAATCCC | -0.0727
AAATTCAA | 0.131
CATCCTAA | 0.0804
TGACTTAA | 0.268
ACACAAGC | 0.0481
CTTTGTAC | -0.0254

Sequence | PBM E-score
ATACCCAT | 0.141
AACACGTG | 0.17
ACTGCCAG | -0.067
GGTCTTAA | -0.326
CTAGGCCA | -0.0934
TCTTGAAA | 0.182
CATGACAA | 0.0097
GAGAATAC | 0.161
CCCCGTCC | -0.297
AAGCCGCG | -0.0409
CCGCATGA | -0.136
ACGCCATA | 0.134
CCTCTAGC | -0.167
CAGCCAGG | -0.173
ATAGTATC | 0.174
AATGGACC | 0.0615
ACCTGATG | -0.0591
AGCAAGTA | 0.0575
ACATTTGC | 0.14
ACAGAATG | 0.0905
AAAACGCA | -0.00299
ACAACCCG | -0.0389
GGCCGCTA | -0.289
AATTCGGG | -0.0241
AAAGCCAG | -0.0892

Sequence | PBM E-score
CTGCTATC | 0.0831
GGTCTTGA | -0.134
CTGAGGAA | -0.151
AGGGTTAA | -0.159
CCGCTGCC | -0.052
CAAATACC | 0.0642
ATGCGAGA | 0.00541
ACGACGCC | -0.276
CATCAAAG | -0.0276
AAACTATA | 0.183
AAACCTTA | 0.0451
ACTACGTG | -0.223
CACCGTGG | -0.302
CAGTCCGC | -0.123
AGCTAAAG | -0.0853
GGCTGCGA | -0.109
ACATATAC | 0.0358
AGGCAAGG | -0.277
CGGCAGGC | -0.223
ACTGGGAT | 0.0399
ATGGACGG | 0.128
GGAGTCGA | -0.0634
CGTACGAC | -0.199
CAGATCAC | -0.0263
CGTAATTA | 0.197

Pulled one by one from the list above (three):
Sequence | PBM E-score
AGCAAGTA | 0.0575
ACACTACT | 0.14
AAGCCGCG | -0.0409

Continued.

Sequence | PBM E-score
CGATGGAG | -0.0143
GTGATTCA | 0.0124
CGGCGGGC | -0.0846
ACGCTGGG | -0.273
GGTAGTTA | 0.0876
GCACGCAA | -0.132
CGCCTAGC | -0.21
CGCCTACA | 0.0039
AGTAACAA | 0.15
CTACAGAG | -0.136
GGAATATA | 0.221
ATGGTGGC | -0.252
AAAAGTGA | 0.112
GGAACGGA | 0.0175
GAGTCATA | 0.043
ATATTTAC | 0.159
CATGCAAG | 0.0974
CACGAGGA | -0.17
CCGAGCTA | 0.0512
AGATGAGC | 0.0118
TATGTAGA | 0.0278
ATCCTGTA | -0.0318
AGCAAATG | 0.0431
GGCATTAC | 0.186
TAGAGACA | -0.17

Sequence | PBM E-score
GAGATCTC | -0.0335
CTGCGTCC | -0.22
CAATCGGG | -0.0378
GGCTTTAA | -0.182
CGCGTCAA | 0.00724
ATCGTGAG | -0.0672
ATACTAAA | 0.265
AGCCAAAC | -0.0159
CGAATCTC | -0.151
GCATGCAC | 0.00446
CCGAATCA | -0.017
GCCATTAA | 0.0155
TAGGGGAA | -0.0332
ACAGTCCC | -0.253
ACCCCATA | 0.00853
CCTTGAAG | -0.139
AGAAGGAT | 0.0541
GCGTTATA | 0.0906
GACTCCCA | -0.312
CACATCAA | 0.194
TACGTGCA | 0.0794
GAATCAAC | 0.211
AGCTCTAG | -0.0574
CATGGGTC | -0.0514
GGGTCGTA | -0.122

For reference, some entries already given:
Sequence | PBM E-score
CGAATCTC | -0.151
GCATGCAC | 0.00446
CCGAATCA | -0.017
GCCATTAA | 0.0155
TAGGGGAA | -0.0332
ACAGTCCC | -0.253

Going on with the list.

Sequence | PBM E-score
GACACGAA | -0.0198
CTCAGGCC | -0.282
CGTGCCTA | -0.177
ACCGCAAC | 0.247
CGTATATC | 0.00536
ATCCCCCC | -0.433
CGCCAGGC | -0.0298
AGTACTCG | 0.153
ACTCCGCT | -0.0398
CTTTTCCA | -0.113
AGTTCACA | -0.0198
AGGTTAGA | -0.0977
TCAATCAA | 0.173
ATGGAGTG | -0.0775
ACTATCAT | 0.199
AAACGGCT | -0.0602
AAGTGAAG | 0.0767
TACCACAA | 0.151
AGCAGGCA | -0.193
AGTCGATC | -0.00635
TCCTAACA | 0.0338
AAAACACC | 0.0481
ACGACAAA | 0.159
ACGTAGCG | -0.214
CTTCAGCC | -0.156

Sequence | PBM E-score
CAAGGTCG | 0.00633
AAGAGTCT | -0.0712
CGAGTTAA | 0.15
CGGGCCTC | 0.0182
CACTGAAG | -0.00773
AATTGGTA | 0.0713
CCATTAGC | -0.0184
CGATTCAG | 0.0171
GCTGTCTA | -0.101
TCCCGACA | 0.049
AATAAGAA | 0.226
AGACTTCA | -0.21
GTCCTCTA | -0.217
AAAGAATA | 0.17
ATGGGCCC | -0.246
CAACGGAC | -0.105
AGGGCGTC | -0.16
CTTCGTGC | -0.0972
ATTTTACA | -0.068
CTCCCCTA | -0.0952
CGCCGCAG | -0.0953
CGCTTGCA | 0.0308
